This test addresses DNA polymerase III α subunit, full-length (E. coli) (UniProt P10443). Description: FRET or BRET; α labeled with Alexa Fluor 647 C2-maleimide (acceptor) and β labeled with Alexa Fluor 488 C5-maleimide (donor); purified UmuD variants added to 40 μM; both purified.

Chains of the proteins cited; added tags and fusions are not shown.
UniProt P10443: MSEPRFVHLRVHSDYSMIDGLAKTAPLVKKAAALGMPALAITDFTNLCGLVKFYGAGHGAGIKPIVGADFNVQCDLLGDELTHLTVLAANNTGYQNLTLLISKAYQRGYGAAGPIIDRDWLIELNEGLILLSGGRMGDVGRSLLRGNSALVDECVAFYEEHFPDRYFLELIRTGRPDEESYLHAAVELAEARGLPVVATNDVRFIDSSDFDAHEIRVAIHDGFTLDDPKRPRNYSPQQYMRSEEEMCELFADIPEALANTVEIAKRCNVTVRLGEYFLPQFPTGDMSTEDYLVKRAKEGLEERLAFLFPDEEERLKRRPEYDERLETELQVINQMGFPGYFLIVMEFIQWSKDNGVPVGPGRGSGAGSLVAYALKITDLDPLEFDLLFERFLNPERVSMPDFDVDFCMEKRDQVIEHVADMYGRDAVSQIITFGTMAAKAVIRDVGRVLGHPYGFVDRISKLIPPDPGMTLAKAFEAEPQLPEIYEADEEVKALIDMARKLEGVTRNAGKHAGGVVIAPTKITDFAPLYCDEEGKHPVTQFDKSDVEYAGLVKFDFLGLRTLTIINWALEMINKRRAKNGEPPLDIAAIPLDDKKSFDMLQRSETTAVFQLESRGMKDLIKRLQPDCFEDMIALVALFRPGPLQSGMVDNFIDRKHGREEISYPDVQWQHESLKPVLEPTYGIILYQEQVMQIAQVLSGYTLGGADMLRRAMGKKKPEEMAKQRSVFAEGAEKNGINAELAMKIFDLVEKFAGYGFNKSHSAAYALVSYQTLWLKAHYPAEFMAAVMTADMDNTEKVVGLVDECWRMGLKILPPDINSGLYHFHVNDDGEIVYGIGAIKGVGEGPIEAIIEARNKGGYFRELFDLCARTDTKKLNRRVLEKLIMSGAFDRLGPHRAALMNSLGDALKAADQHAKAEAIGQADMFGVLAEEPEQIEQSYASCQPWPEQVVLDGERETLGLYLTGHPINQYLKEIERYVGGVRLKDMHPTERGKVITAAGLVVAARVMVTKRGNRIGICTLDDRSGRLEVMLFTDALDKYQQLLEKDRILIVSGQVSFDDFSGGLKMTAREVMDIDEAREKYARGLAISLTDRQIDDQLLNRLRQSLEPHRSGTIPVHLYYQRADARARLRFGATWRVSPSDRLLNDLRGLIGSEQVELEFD
UniProt P0AG11: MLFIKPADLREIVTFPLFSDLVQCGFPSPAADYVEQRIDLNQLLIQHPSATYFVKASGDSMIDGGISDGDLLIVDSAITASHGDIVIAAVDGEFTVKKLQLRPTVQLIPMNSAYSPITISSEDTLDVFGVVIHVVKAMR

Results are given in words; binding and its absence hold for the method and conditions named. Some results given as binding are weak or reduced against the parent protein; the word gives no strength.

Consider one substance from paper PMC5342242.

For the substance “wild-type UmuD (from UniProt P0AG11 1-139)”, the binding result is listed as “binds”.
